PubChem BioAssay AID1508597 – Cure First | 2020
This is one part, drawn at random, of about 2,100 reagents tested. 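Calls flag viability under 80% in either arm, not effects specific to rucaparib; the reference for percent is not stated.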 A number with no mark means an inactive call. Not stated in the record: the 100% reference.

Aim: 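Knock-downs altering ovarian cancer cell survival with or without PARP inhibitor rucaparib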 (primary screen)
System: human ovarian carcinoma lines grown from tumours: OCI-P5x (papillary serous) and OCI-C5x (clear cell)
Knock-down reagent: siRNA pool against human genes, 1.25 pmol siRNA per well
Time to read-out: 72 h or 96 h, depending on the cell culture
Treatment: rucaparib 20 µM (about IC30) or vehicle, present until read-out
Detection: 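ATP luminescence measured at 72 or 96 h according to the culture, then normalised and expressed as percent viability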
Direction: viability, normalised: higher = more viable cells remaining
Active means: 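Active when normalised viability falls below 80 percent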
Meaning of the calls: active = viability under 80%; inactive = viability 80% or more

"viability, normalised (%)",gene,rucaparib or vehicle,cell line,technical replicate
35.1 (active),CDK5,Rucaparib,OCI-C5x (clear cell),1
31.7 (active),CDK5,Rucaparib,OCI-C5x (clear cell),2
31.3 (active),CDK5,Rucaparib,OCI-C5x (clear cell),3
83.5,CDK5,Rucaparib,OCI-P5x (serous),1
77.7 (active),CDK5,Rucaparib,OCI-P5x (serous),2
76.7 (active),CDK5,Rucaparib,OCI-P5x (serous),3
58.7 (active),CDK5,Vehicle,OCI-C5x (clear cell),1
43.4 (active),CDK5,Vehicle,OCI-C5x (clear cell),2
42.9 (active),CDK5,Vehicle,OCI-C5x (clear cell),3
75.5 (active),CDK5,Vehicle,OCI-P5x (serous),1
109,CDK5,Vehicle,OCI-P5x (serous),2
82.8,CDK5,Vehicle,OCI-P5x (serous),3
82,PLCH1,Rucaparib,OCI-C5x (clear cell),1
66.3 (active),PLCH1,Rucaparib,OCI-C5x (clear cell),2
57.1 (active),PLCH1,Rucaparib,OCI-C5x (clear cell),3
48.6 (active),PLCH1,Rucaparib,OCI-P5x (serous),1
55.1 (active),PLCH1,Rucaparib,OCI-P5x (serous),2
54.5 (active),PLCH1,Rucaparib,OCI-P5x (serous),3
67.1 (active),PLCH1,Vehicle,OCI-C5x (clear cell),1
74.8 (active),PLCH1,Vehicle,OCI-C5x (clear cell),2
73.8 (active),PLCH1,Vehicle,OCI-C5x (clear cell),3
74.5 (active),PLCH1,Vehicle,OCI-P5x (serous),1
81.4,PLCH1,Vehicle,OCI-P5x (serous),2
59.9 (active),PLCH1,Vehicle,OCI-P5x (serous),3
66.1 (active),CBX1,Rucaparib,OCI-C5x (clear cell),1
52.2 (active),CBX1,Rucaparib,OCI-C5x (clear cell),2
54.7 (active),CBX1,Rucaparib,OCI-C5x (clear cell),3
80.2,CBX1,Rucaparib,OCI-P5x (serous),1
82.9,CBX1,Rucaparib,OCI-P5x (serous),2
97,CBX1,Rucaparib,OCI-P5x (serous),3
56 (active),CBX1,Vehicle,OCI-C5x (clear cell),1
77.5 (active),CBX1,Vehicle,OCI-C5x (clear cell),2
60.3 (active),CBX1,Vehicle,OCI-C5x (clear cell),3
79.3 (active),CBX1,Vehicle,OCI-P5x (serous),1
69.5 (active),CBX1,Vehicle,OCI-P5x (serous),2
81.8,CBX1,Vehicle,OCI-P5x (serous),3
57.7 (active),BAIAP2,Rucaparib,OCI-C5x (clear cell),1
45.6 (active),BAIAP2,Rucaparib,OCI-C5x (clear cell),2
54.6 (active),BAIAP2,Rucaparib,OCI-C5x (clear cell),3
98.1,BAIAP2,Rucaparib,OCI-P5x (serous),1
97,BAIAP2,Rucaparib,OCI-P5x (serous),2
69.1 (active),BAIAP2,Rucaparib,OCI-P5x (serous),3
37.6 (active),BAIAP2,Vehicle,OCI-C5x (clear cell),1
41.1 (active),BAIAP2,Vehicle,OCI-C5x (clear cell),2
36.3 (active),BAIAP2,Vehicle,OCI-C5x (clear cell),3
77.4 (active),BAIAP2,Vehicle,OCI-P5x (serous),1
62.8 (active),BAIAP2,Vehicle,OCI-P5x (serous),2
74.6 (active),BAIAP2,Vehicle,OCI-P5x (serous),3

Quoted from above (6 entries):
"viability, normalised (%)",gene,rucaparib or vehicle,cell line,technical replicate
35.1 (active),CDK5,Rucaparib,OCI-C5x (clear cell),1
31.7 (active),CDK5,Rucaparib,OCI-C5x (clear cell),2
31.3 (active),CDK5,Rucaparib,OCI-C5x (clear cell),3
83.5,CDK5,Rucaparib,OCI-P5x (serous),1
77.7 (active),CDK5,Rucaparib,OCI-P5x (serous),2
76.7 (active),CDK5,Rucaparib,OCI-P5x (serous),3
